US9006185B2, “Use of cell-permeable peptide inhibitors of the JNK signal transduction pathway for the treatment of various diseases” (Xigen Inflammation Ltd., priority 2008, dated 2015)
Not every detail of the peptide structures is certain; ends, links or a residue may be inferred. Ends that are not written are not given here.

The chains behind the UniProt entries cited, without tags or fusion partners.
UniProt P53779, whole entry, species assumed: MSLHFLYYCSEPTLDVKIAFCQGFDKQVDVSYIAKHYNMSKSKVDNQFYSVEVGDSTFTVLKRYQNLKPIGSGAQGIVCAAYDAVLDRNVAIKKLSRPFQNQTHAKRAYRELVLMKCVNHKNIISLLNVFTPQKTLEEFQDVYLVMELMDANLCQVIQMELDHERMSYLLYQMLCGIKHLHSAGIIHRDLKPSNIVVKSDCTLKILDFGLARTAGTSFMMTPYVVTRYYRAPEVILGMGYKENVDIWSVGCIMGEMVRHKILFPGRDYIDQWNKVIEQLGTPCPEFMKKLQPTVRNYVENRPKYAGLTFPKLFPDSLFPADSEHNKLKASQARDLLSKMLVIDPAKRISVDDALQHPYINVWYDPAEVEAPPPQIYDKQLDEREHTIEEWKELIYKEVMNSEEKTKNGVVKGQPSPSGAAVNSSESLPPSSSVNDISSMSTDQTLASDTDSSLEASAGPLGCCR

Assays:
[1] = biological target: T1, JNK3 (Homo sapiens, UniProt P53779); experiment: Solid phase kinase assay, JNK3 phosphorylation of Elk1; format: biochemical; conditions: dose response 0-25 μM
T1 construct: host or cells: rabbit reticulocyte lysate, cell-free transcription/translation

[2] = tested on: JNKs from UV-light irradiated HeLa cells or IL-1 treated PTC cells; experiment: c-Jun phosphorylation by activated JNKs pulled down with GST-Jun from stimulated cells; format: biochemical; conditions: 25 μM peptide
[3] = tested on: activation of c-Jun by JNK; experiment: GAL4 / GAL-Jun luciferase reporter in HeLa cells; format: cell-based; conditions: 1 μM
[4] = tested on: AP-1 DNA binding complex; experiment: Gel retardation assay with AP-1 probe, HeLa cell nuclear extracts; format: cell-based; conditions: added 30 minutes before TNF-alpha 5 ng/ml

## GRKKRRQRRRPPRPKRPTTLNLFPQVPRSQD [L-TAT-IB1(s)]
[1]
  inhibition of JNK3 phosphorylation of Elk1: absence of TAT-IB(s) inhibition of JNK3 phosphorylation of Elk1
[2]
  phosphorylation of c-Jun by activated JNKs: efficiently prevented phosphorylation of c-Jun by activated JNKs
[3]
  activation of c-Jun in HeLa cells transfected with JNK3: inhibited JNK2 mediated activation of c-Jun
[3]; HeLa cells
  activation of c-Jun following MKK4 and MKK7 mediated activation of JNK (luciferase): blocked activation of c-Jun following MKK4 and MKK7 mediated activation of JNK
[4]
  formation of the AP-1 DNA binding complex: decrease the formation of the AP-1 DNA binding complex in the presence of TNF-alpha
